In patent US8921517 (dated 2014):

Assay: general procedure: solution-phase peptide synthesis; EDC.HCl/HOBt; DIC/HOBt; OSu and OPfp active esters
Details: 2 TFA
[1] = late stage modification step, HPLC

Boc-D-Phe^1-Pro-Arg-Pro-Gly^5-Gly-Gly-Gly-Asn-Gly^10-Asp(OBzl)-Phe-Glu(OBzl)-Glu(OBzl)-Ile^15-Pro-Glu(OBzl)-Glu(OBzl)-Tyr(Bzl)-Leu^20-OBzl (SEQ ID NO 1)
step yield (coupling step): 50% | crude HPLC purity (coupling step, HPLC): 81.4%

Boc-D-Phe^1-Pro-Arg-Pro-Gly^5-Gly-Gly-Gly-Asn-Gly^10-OBzl (SEQ ID NO 2)
step yield (coupling step): 76% | crude HPLC purity (coupling step, HPLC): 83.4%

Boc-D-Phe^1-Pro-Arg-Pro-Gly^5-Gly-Gly-Gly-Asn-Gly^10-OH (SEQ ID NO 2)
crude HPLC purity [1]: 80%

Boc-D-Phe^1-Pro-Arg-Pro-OBzl.HCl (SEQ ID NO 4)
crude HPLC purity (coupling step, HPLC): 96%

Boc-D-Phe^1-Pro-Arg-Pro-OH (SEQ ID NO 4)
crude HPLC purity [1]: 99.4%

Boc-Glu(OBzl)-Glu(OBzl)-Ile^15-Pro-Glu(OBzl)-Glu(OBzl)-Tyr(Bzl)-Leu^20-OBzl (SEQ ID NO 8)
step yield (coupling step): 88% | crude HPLC purity (coupling step, HPLC): 90%

Boc-Glu(OBzl)-Glu(OBzl)-Ile^15-Pro-OH.DCHA (SEQ ID NO 7)
crude HPLC purity (coupling step, HPLC): 89%

Boc-Glu(OBzl)-Glu(OBzl)-Tyr(Bzl)-Leu^20-OBzl (SEQ ID NO 6)
crude HPLC purity (coupling step, HPLC): 92%

Boc-Gly^5-Gly-Gly-Gly-Asn-Gly^10-OBzl (SEQ ID NO 5)
step yield (coupling step): 100% | crude HPLC purity (coupling step, HPLC): 97.9%

Boc-Gly^5-Gly-Gly-Gly-OH.TEA (SEQ ID NO 10)
step yield (late stage modification step): 100% | crude HPLC purity [1]: 99.6%

Boc-Phe-Glu(OBzl)-Glu(OBzl)-Ile^15-Pro-Glu(OBzl)-Glu(OBzl)-Tyr(Bzl)-Leu^20-OBzl (SEQ ID NO 9)
step yield (coupling step): 95% | crude HPLC purity (coupling step, HPLC): 87.9%

H-D-Phe^1-Pro-Arg-Pro-Gly^5-Gly-Gly-Gly-Asn-Gly^10-Asp-Phe-Glu-Glu-Ile^15-Pro-Glu-Glu-Tyr-Leu^20-OH.2 TFA (Bivalirudin) (SEQ ID NO 1)
step yield (late stage modification step): 78% | crude HPLC purity [1]: 65% | final HPLC purity (purification step, HPLC): 99% | step yield (purification step, based on bivalirudin content in the crude peptide): 70%

H-Glu(OBzl)-Glu(OBzl)-Ile^15-Pro-Glu(OBzl)-Glu(OBzl)-Tyr(Bzl)-Leu^20-OBzl.TFA (SEQ ID NO 8)
step yield (late stage modification step): 87% | crude HPLC purity [1]: 88.9%

H-Glu(OBzl)-Glu(OBzl)-Tyr(Bzl)-Leu^20-OBzl.TFA (SEQ ID NO 6)
step yield (late stage modification step): 96% | crude HPLC purity [1]: 96%

H-Gly^5-Gly-Gly-Gly-Asn-Gly^10-OBzl.TFA (SEQ ID NO 5)
crude HPLC purity [1]: 97.5%

H-Phe-Glu(OBzl)-Glu(OBzl)-Ile^15-Pro-Glu(OBzl)-Glu(OBzl)-Tyr(Bzl)-Leu^20-OBzl.TFA (SEQ ID NO 9)
step yield (late stage modification step): 99% | crude HPLC purity [1]: 86.6%
